As a reminder, the AC50 is the concentration at which the activity in the assay is half-maximal.

SMILES strings stand for the structures. Several values for one entry are separate records, joined by “and”; a condition that tells them apart may be missing. Identical values can stand only once. The list shows a part of the results. Further columns of the screen follow, without active or inactive calls. Most of these compounds were active or inconclusive in the main read-out, so they are no random draw. Words in brackets tell the shape of the fitted curve; partial curves, single points and poor fits give uncertain potencies.

Among the data in PubChem BioAssay AID1487 (National Center for Advancing Translational Sciences (NCATS), 2009) are AC50 values, retold here.

A short description of the test: qHTS Assay for Modulators of Lamin A Splicing. The note with it: HeLa LMNA splicing GFP/RFP minigene ratio, 48 h. A digest of the protocol:
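S3 HeLa stable clones carrying a lamin A-EGFP splicing minigene plus DsRed2 were seeded at 600 cells/well in Opti-MEM with 2% FBS, pin-dosed and incubated 48 h at 37°C. Acumen cytometry (488 nm) gave the GFP/RFP total-intensity ratio.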
In general terms: Quantitative high-throughput screening tests each substance at several concentrations.

[1] abbreviates: measured here: RFP viability control channel.
Where [2] appears, read: measured here: GFP splicing reporter channel.

On to `COc1ccc2c(C)cc(Sc3nnnn3-c3ccccc3)nc2c1`, for which the half-maximal activity concentration (AC50) under setting [1] was 22.4 µM [rising, partial curve, poor fit].

Consider `O=c1c2ccccc2nc2n1CCN2Cc1ccc(Cl)cc1`, for which the concentration at half-maximal activity (AC50) under setting [1] was 12.6 µM [rising, partial curve].

On to `COC(=O)c1sc(NC(=O)CSc2nncs2)c(C(=O)OC)c1C`, for which the half-maximal activity concentration (AC50) is 0.00891 µM [rising, full curve, poor fit] under setting [2] and 17.8 µM [rising, single point] under setting [1].

In the case of `O=C(c1cc2c(=O)n3ccccc3nc2s1)N1CCN(Cc2ccc3c(c2)OCO3)CC1`, the concentration at half-maximal activity (AC50) under setting [2] is 2.51 µM [falling, partial curve] and the concentration at half-maximal activity (AC50) under setting [1] was 3.16 µM [falling, partial curve].

As for `O=C(NCc1ccco1)c1ccc(N2CCCCC2)c([N+](=O)[O-])c1`, the AC50 under setting [2] was 12.6 µM [rising, partial curve] and the AC50 under setting [1] was 12.6 µM [rising, partial curve, poor fit].

Consider `Cn1c(CN2CCCC2)nc2cc(NC(=O)c3cccs3)ccc21`, for which the AC50 was 35.5 µM [rising, single point] under setting [2] and 17.8 µM [rising, single point] under setting [1].

For the compound `Cc1n[nH]c(C)c1CCN(C)Cc1cn(C)nc1-c1ccccc1F`, the half-maximal activity concentration (AC50) under setting [2] was 3.55 µM [falling, full curve, poor fit] and the half-maximal activity concentration (AC50) under setting [1] is 1.78 µM [falling, full curve].

`O=C(CCNC(=O)c1ccccc1Cl)Nc1nc(-c2ccccc2Cl)cs1`: the half-maximal activity concentration (AC50) under setting [2] was 35.5 µM [rising, single point] and the concentration at half-maximal activity (AC50) under setting [1] was 35.5 µM [rising, single point].

As for `Cc1ccc(Cl)cc1NC(=O)Nc1cccc(OCc2cc(=O)n3ccccc3n2)c1`, the AC50 under setting [2] is 0.794 µM [rising, single point].

For the compound `Cc1nn(C)c(C)c1Sc1ccc(Br)cc1`, under setting [1], the half-maximal activity concentration (AC50) was 15.8 µM [rising, partial curve].

On to `O=C(Nc1cccc(C(F)(F)F)c1)c1cccnc1N1CCN(c2ccccc2)CC1`, for which the AC50 under setting [1] was 35.5 µM [rising, single point].

On to `O=C(O)CN(CCN(CC(=O)O)CC(=O)O)CC(=O)O`, for which, under setting [2], the concentration at half-maximal activity (AC50) is 22.4 µM [falling, single point].

Turning to `O=S(=O)(c1ccc2c(c1)OCCO2)N1CCC(O)(c2ccc(Cl)cc2)CC1`, the AC50 under setting [1] was 22.4 µM [rising, partial curve].

`O=C(NCC(c1ccco1)S(=O)(=O)c1cccs1)c1ccc(F)c(F)c1` (stereo unspecified): the AC50 under setting [2] is 3.55 µM [rising, partial curve].

On to `C[C@@H]1C(SC2Cn3cnc[n+]3C2)=C(C(=O)[O-])N2C(=O)[C@H]([C@@H](C)O)[C@@H]12` (stereo partly specified), for which the AC50 was 0.562 µM [falling, partial curve, poor fit] under setting [2] and 35.5 µM [falling, single point] under setting [1].

Turning to `Cc1cccc(N(CC(O)CON=C2c3ccccc3-c3ccccc32)S(C)(=O)=O)c1` (stereo unspecified), the AC50 under setting [2] was 20 µM [rising, single point] and the concentration at half-maximal activity (AC50) under setting [1] is 28.2 µM [rising, single point].

For the compound `CCOc1ccccc1NC(=O)CC1Nc2cc(C)c(C)cc2NC1=O` (stereo unspecified), the AC50 was 15.8 µM [rising, partial curve, poor fit] under setting [2] and 14.1 µM [rising, single point] under setting [1].

Consider `CS/C(=C\[N+](=O)[O-])Nc1ccc(F)cc1`, for which, under setting [2], the concentration at half-maximal activity (AC50) was 15.8 µM [rising, partial curve, poor fit].

Consider `O=C(CCn1nc(-c2ccc(Cl)cc2)ccc1=O)NCCc1ccccc1`, for which the AC50 was 0.251 µM [falling, full curve] under setting [2] and 0.158 µM [falling, full curve] under setting [1].

With `CN(C)S(=O)(=O)c1ccc2c(c1)/C(=C/c1cc3c([nH]1)CCCC3)C(=O)N2`, the AC50 under setting [2] is 1.58 µM [rising, partial curve] and the AC50 under setting [1] is 3.16 µM [rising, full curve].

For the compound `O=C(c1cccc(C(=O)N2CCc3ccccc32)n1)N1CCc2ccccc21`, the AC50 reads like this: under setting [2], 35.5 µM [rising, single point]; under setting [1], 31.6 µM [rising, single point].

Consider `Cc1ccc(C(NC(=O)NC(C)c2ccccc2)C(Cl)(Cl)Cl)cc1F` (stereo unspecified), for which the half-maximal activity concentration (AC50) under setting [1] is 12.6 µM [rising, single point].

With `CC(c1ccco1)N(C(=O)CSc1ccc(Br)cc1)c1ccccn1` (stereo unspecified), the concentration at half-maximal activity (AC50) is, setting by setting: under setting [2], 35.5 µM [rising, single point]; under setting [1], 31.6 µM [rising, single point].

For the compound `C=CCc1cccc(/C=N/NC(=O)CNc2ccccc2)c1O`, the AC50 reads like this: under setting [2], 11.2 µM [rising, partial curve]; under setting [1], 15.8 µM [rising, partial curve].

Regarding `COc1ccc(C(=O)N2c3cc4c(cc3C(C)=CC2(C)C)OCO4)cc1`, the AC50 is 8.91 µM [rising, partial curve] under setting [2] and 10 µM [rising, partial curve] under setting [1].

As to `Cc1cccc(NC(=O)c2sc3nc4c(c(-c5ccco5)c3c2N)CCC4)c1`, the AC50 runs as follows: under setting [2], 0.0141 µM [rising, full curve, poor fit]; under setting [1], 3.98 µM [rising, partial curve, poor fit].

With `CCN1C(=O)/C(=C\c2nc3ccccc3c(=O)n2CC)c2ccccc21`, the AC50 under setting [2] is 2.82 µM [falling, full curve].

`COc1ccc2[nH]cc(CCNc3ccnc(-c4cccc(C#N)c4)n3)c2c1`: the AC50 runs as follows: under setting [2], 20 µM [falling, single point]; under setting [1], 35.5 µM [falling, single point].

Regarding `Cc1onc(-c2ccccc2Cl)c1C(=O)N1CCN(c2ccccc2)CC1`, under setting [1], the AC50 is 35.5 µM [rising, single point].

For `Clc1cccc(Cl)c1NC1=NCCN1`, the half-maximal activity concentration (AC50) by setting is: under setting [2], 12.6 nM [falling, full curve] and 20 nM [rising, full curve, poor fit] and 10 µM [falling, single point]; under setting [1], 282 nM [falling, partial curve, poor fit] and 5.62 nM [rising, full curve, poor fit] and 35.5 µM [falling, single point].

Turning to `CC(C)c1ccc(/C=C/C(=O)NC(=S)Nc2ccc(CN3CCOCC3)cc2)cc1`, the AC50 under setting [1] is 12.6 µM [rising, partial curve].

With `CCCn1nnc(NC(=O)/C=C/c2cc(Br)ccc2OC)n1`, under setting [1], the AC50 was 0.0355 µM [falling, full curve, poor fit].

For the compound `CC(=O)c1cccc(NS(=O)(=O)c2cc3c(cc2C)N(C(C)=O)CCO3)c1`, the AC50 was 14.1 µM [falling, partial curve, poor fit] under setting [2] and 35.5 µM [falling, single point] under setting [1].

As for `CCc1cccc2c(C(=O)COC(=O)C3=NNC(=O)CC3)c[nH]c12`, the AC50 was 0.794 µM [rising, full curve, poor fit] under setting [2] and 1.41 µM [rising, partial curve] under setting [1].

As to `N#C/C(=C(/O)COC(=O)CCc1ccc(S(=O)(=O)N2CCOCC2)cc1)c1nc2ccccc2[nH]1`, the AC50 under setting [2] was 0.112 µM [rising, full curve, poor fit].

Take `CC(=O)Nc1ccc(SCC(=O)Nc2cc(C)on2)cc1`: under setting [1], the AC50 was 5.01 µM [rising, partial curve].

On to `CCOC(=O)c1nn(-c2ccc(Br)cc2)cc1C(=O)c1cccc2ccccc12`, for which, under setting [2], the AC50 is 7.08 µM [falling, partial curve].

With `Cc1nc(N2CCCCC2)sc1C(=O)c1cccc([N+](=O)[O-])c1`, under setting [2], the AC50 was 22.4 µM [rising, single point].

In the case of `CCNC(=O)c1ccc(C2SCC(=O)N2CCc2ccccc2)cc1` (stereo unspecified), the concentration at half-maximal activity (AC50) runs as follows: under setting [2], 10 µM [rising, partial curve, poor fit]; under setting [1], 12.6 µM [rising, partial curve, poor fit].

For `O=C1[C@H]2CCCC[C@H]2C(=O)N1CCCCN1CCN(c2nsc3ccccc23)CC1`, the AC50 is, setting by setting: under setting [2], 20 µM [rising, single point]; under setting [1], 12.6 µM [rising, partial curve, poor fit].

As for `Cc1ccc(-n2c(O)c(C=Nc3ccc(S(=O)(=O)Nc4ncccn4)cc3)c3ccccc3c2=O)cc1C`, under setting [1], the half-maximal activity concentration (AC50) was 10 µM [rising, partial curve, poor fit].

`COc1cccc(CNS(=O)(=O)c2ccc3c(c2)C(C(C)C)C(=O)N3)c1` (stereo unspecified): the AC50 is, setting by setting: under setting [2], 0.00447 µM [falling, full curve, poor fit]; under setting [1], 0.00891 µM [falling, full curve, poor fit].

With `COCCN1C=C2C(=O)C(C)(OC(=O)CCC(=O)OC)C(=O)C(Br)=C2C=C1c1ccc(OC)cc1` (stereo unspecified), the half-maximal activity concentration (AC50) reads like this: under setting [2], 0.708 µM [rising, full curve, poor fit]; under setting [1], 1.58 µM [rising, partial curve, poor fit].

As for `Cc1ccc(NC(=O)CC2Sc3ccc(C(F)(F)F)cc3NC2=O)cc1` (stereo unspecified), the AC50 by setting is: under setting [2], 0.00501 µM [falling, full curve, poor fit]; under setting [1], 0.00501 µM [falling, full curve, poor fit].

With `COc1ccc(-c2nc3cnc(N4CCN(C)CC4)nc3n(Cc3cccc(OC)c3)c2=O)cc1`, the AC50 by setting is: under setting [2], 22.4 µM [falling, single point]; under setting [1], 12.6 µM [falling, single point].

For `O=C(Nc1ccc(Cc2ccncc2)cc1)c1ccco1`, the concentration at half-maximal activity (AC50) is 11.2 µM [rising, single point] under setting [2] and 14.1 µM [rising, single point] under setting [1].

`Cc1cc(C(=O)N/N=C/c2ccc(-c3ccccc3Cl)o2)n[nH]1`: the half-maximal activity concentration (AC50) under setting [1] is 10 µM [rising, partial curve].

Take `O=C1NC(=O)/C(=C\c2ccccc2OCc2ccc([N+](=O)[O-])cc2)N1`: the AC50 under setting [1] was 35.5 µM [rising, single point].

For the compound `CCCCCOc1ccc(CSC(=N)N)cc1[N+](=O)[O-]`, the AC50 under setting [1] was 14.1 µM [rising, single point].
